In all, about 1,200 compounds went through this assay and about 140 (12%) were called active.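 The calls were made as follows: active = fitted curve falls past -35% activity change at a dose under twice the top valid dose, in every replicate test; inconclusive = replicate tests disagree on the call; inactive = the rest, including activity in the opposite direction.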 The list lacks most of the strong results.
Experiment: CFTR-F508del correctors, dose response, FRT cells, YFP quenching, cherry-pick (AID 743402);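 also: compounds act as correctors raising surface CFTR-F508del before acute activation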
Conditions: FRT CFTR-F508del YFP iodide quenching, 24 h, channel opened with forskolin and a potentiator; at 26 µM (top of the series) unless noted

Activity change, negative = more quenching (active), inactive:
COc1ccccc1N(C)S(=O)(=O)c1ccc(C(=O)Nc2nccs2)cc1 12.9%
O=C(c1cccc(F)c1)N1CC(=O)N2[C@@H](CO)[C@@H](c3ccc(C#Cc4ccc(F)cc4)cc3)[C@@H]2C1 0%
Cc1ccc(S(=O)(=O)N2CCOCC2)cc1NC(=O)COC(=O)c1ccc(Cl)nc1 12.9%
CCOc1ccc(Cl)cc1C1=CC(=O)C[C@H](c2ccc(OC)cc2)C1 6.88%
COc1ccc(S(=O)(=O)Cc2ccc(C(=O)N3CCN(c4cccc(C)c4)C(C)C3)o2)cc1 (stereo unspecified) 6.67%
COc1ccc(C)cc1NC(=O)C(OC(=O)c1ccc(Cl)c(S(=O)(=O)N(C)c2ccccc2)c1)c1ccccc1 (stereo unspecified) 16%
CCCCCCCCCC(=O)OCC(O)CO (stereo unspecified) 3.33%
COCCSc1ccccc1C(=O)Nc1cc([N+](=O)[O-])ccc1OC -6.67%
CC(C)CN(CCCNC(=O)CN1C(=O)CSc2ccc(S(=O)(=O)N3CCOCC3)cc21)CC(C)C 6.25%
COC(=O)COc1cccc2c(=O)n(CC(=O)NCc3ccccc3)ccc12 -11.9%
O=C1c2ccccc2C(=O)c2c1cccc2N1CCCC1 0%
C[C@@H]1CN([C@H](C)CO)S(=O)(=O)c2ccc(-c3ccc(C#N)cc3)cc2O[C@H]1CN(C)Cc1ccccn1 -10.7%
O=C1/C(=C\c2ccc(O)cc2)SC(=S)N1Cc1ccccc1 -6.67%
COc1ccccc1NC(=O)C(=O)NCC(c1ccco1)N1CCc2ccccc21 (stereo unspecified) 10%
CCN(CC(=O)Nc1c(F)cccc1F)C(=O)C1CC1 0%
Cc1cc(O)cc2c1C1CCC3(C)C(=O)CCC3C1C=C2 (stereo unspecified) 2.68%
Cc1cc2oc(C(=O)NCCc3ccc(S(N)(=O)=O)cc3)c(C)c2cc1C 9.79%
CN(Cc1cccs1)C(=O)c1cccc(S(=O)(=O)N2CCCCCC2)c1 10%
NS(=O)(=O)c1cc(C2(O)NC(=O)c3ccccc32)ccc1Cl (stereo unspecified) 3.33%
COc1cc(C(=O)c2cocc2C(=O)c2ccc3c(c2)OCO3)cc(OC)c1OC 6.46%
CCN[C@H]1CN(CCCOC)S(=O)(=O)c2sc(S(N)(=O)=O)cc21 -9.79%

Two compounds drawn at random from those above:
Activity change, negative = more quenching (active), inactive:
CCN(CC(=O)Nc1c(F)cccc1F)C(=O)C1CC1 0%
COc1ccc(C)cc1NC(=O)C(OC(=O)c1ccc(Cl)c(S(=O)(=O)N(C)c2ccccc2)c1)c1ccccc1 (stereo unspecified) 16%

From PubChem BioAssay AID743402 (Broad Institute, 2014)
